Out of some 340,000 compounds screened, about 4,500 (1.3%) were called active. Inconclusive results, whose numbers are uncertain, are shown with a selection of clear calls. Calls follow the shape of the dose curve; as a rule, active = well fitted inhibition curve with a large enough effect; inconclusive = small, poorly fitted or top-dose-only effect, or another doubt; inactive = no such curve, though single readings can be large or run the other way. Potencies of inconclusive entries are doubtful fits and often do not repeat.
biological target: DNA polymerase beta (Homo sapiens) (UniProt P06746); assay: qHTS Assay for Inhibitors of DNA Polymerase Beta; settings: Pol beta primer extension/strand displacement, fluorescence kinetic; activity change, negative = inhibition: at 114 µM (top of the series)
Summary of the method: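 Pol beta (10 nM) and compounds were preincubated 15 min at room temperature, then 50 nM substrate (final) started primer extension/strand displacement. Reads were taken at 0 and 10 min; concentration-response data were fitted to a four-parameter Hill equation.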
% is scaled to controls: 0 for no effect and ±100 for the full control effect; potency is read from the fitted curve at half-maximal effect.

Compound | activity change, negative = inhibition | Potency
O=C(Nc1ccc(-c2nc3cc(Cl)ccc3o2)cc1)c1cc2ccccc2o1 | inconclusive: -59.7% [inhibitor] | –
COc1cc(/C=C2\SC(=O)NC2=O)ccc1Oc1ccc([N+](=O)[O-])cc1[N+](=O)[O-] | – | active: 89.1 µM
O=C(CN1CCOCC1)N/N=C/c1ccc(-c2ccc(Br)cc2)o1 | – | inconclusive: 89.1 µM [inhibitor, single point]
COc1ccccc1NC(=O)NNC(=O)CCN1CCOCC1 | – | inconclusive: 0.891 µM [inhibitor, full curve, poor fit]
CC(C)(C)C(=O)CN1CCN(C2c3ccccc3-c3ccccc32)CC1 | – | inconclusive: 3.98 µM [inhibitor, full curve]
COc1ccc(OC)c(NC(=O)Cn2c(=O)cc(-c3ccccc3)c3c(C)nn(C)c32)c1 | – | inconclusive: 22.4 µM [inhibitor, full curve, poor fit]
COc1cc(NC(=O)CCCOc2cc(=O)n(C)c3ccccc23)cc(OC)c1OC | inactive: 0.569% | –
O=S(=O)(NCc1nc2cccnc2n1Cc1ccccc1Cl)c1ccc(F)c(Cl)c1 | inactive: -5.89% | –
NS(=O)(=O)c1ccc(CNC(=O)/C=C/c2c(F)cccc2Cl)cc1 | – | inconclusive: 4.47 µM [inhibitor, partial curve, poor fit]
CCC(C(=O)Nc1cc(F)ccc1F)n1nc(C)c2c(C)n(-c3ccc(C)cc3)nc2c1=O (stereo unspecified) | – | inconclusive: 39.8 µM [inhibitor, single point]
CCOc1ccc(N(CC)C(=O)c2cc3c(s2)-c2ccccc2OC3)cc1 | inactive: 37% | –
CC1(C)CC2(CC(c3cccs3)c3cc(Cl)c(O)cc3O2)NC(=S)N1 (stereo unspecified) | – | inconclusive: 5.01 µM [inhibitor, single point]
COc1ccc(-n2nnnc2SCC(=O)Nc2cccc(NC(C)=O)c2)cc1OC | – | inconclusive: 1.41 µM [inhibitor, full curve, poor fit]
CCn1c(-c2cc(-c3ccc(C)c(C)c3)nc3ccccc23)n[nH]c1=S | – | inconclusive: 0.251 µM [inhibitor, full curve]
COc1ccc(NC(=O)/C(C#N)=C\c2ccc(-c3cc(C(=O)O)ccc3C)o2)cc1 | – | active: 22.4 µM
COc1cc(/C=N\NC(=O)c2sc(N)nc2C)cc(OC)c1OC | – | active: 28.2 µM
N#Cc1ccc(CSc2nnc(Cc3cccs3)n2Cc2ccco2)cc1 | – | active: 14.1 µM
Cc1ccc(CNC(=O)Cc2ccc(-n3cccc3)cc2)cc1 | – | inconclusive: 79.4 µM [inhibitor, partial curve]
CN(C(=O)C(Cl)Cl)C1CC2C=CC1C2 (stereo unspecified) | inactive: -0.745% | –
COC(=O)c1cc2occc2n1CC(=O)Nc1ccc(N(C)C)cc1 | inactive: 16.4% | –
Cc1cc(C)n2[nH]c(=O)c(N=Nc3ccc(S(N)(=O)=O)cc3)c2n1 | inactive: -0.0302% | –
Cc1c(CC(=O)O)c(=O)oc2c(C)c3occ(-c4ccc(F)cc4)c3cc12 | – | active: 50.1 µM
CS(=O)(=O)N(CCc1ccccc1)CC(=O)Nc1ccc2c(c1)OCO2 | – | inconclusive: 25.1 µM [inhibitor, single point]
N#CC1=C2SCN(C3CCCCC3)CN2C(=O)CC1c1ccc(Cl)cc1 (stereo unspecified) | – | inconclusive: 0.0631 µM [inhibitor, full curve, poor fit]

Compound | activity change, negative = inhibition | Potency
COc1ccc(NC(=S)NNc2ccc(S(=O)(=O)Nc3ccccc3C(=O)O)cc2[N+](=O)[O-])cc1 | inactive: 7.8% | –
CN1C(=O)C(N=Nc2ccccc2C(=O)O)N(C)C1=S (stereo unspecified) | – | inconclusive: 63.1 µM [inhibitor, single point]
Cn1c(-c2cccc3ccccc23)n[nH]c1=S | inactive: 20.1% | –
CCOc1ccc2nc(N3CCOCC3)nc(C)c2c1 | – | inconclusive: 89.1 µM [inhibitor, single point]
CC(NC(=O)OC(C)(C)C)C(=O)Oc1cc2oc(=O)cc(-c3ccccc3)c2cc1Cl (stereo unspecified) | inactive: -21% | –
CCc1ccc(NC(=O)CS(=O)CC(=O)Nc2ccc(F)cc2F)cc1 (stereo unspecified) | – | active: 39.8 µM
CCCC(=O)Nc1ccc(C(=O)N/N=C/c2ccc([N+](=O)[O-])o2)cc1 | – | active: 44.7 µM
Cc1ccc(S(=O)(=O)N2CCC(C(=O)NNS(=O)(=O)c3ccc(Cl)cc3)CC2)cc1 | – | inconclusive: 8.91 µM [inhibitor, full curve, poor fit]
COC(=O)c1cc2sc(Cl)cc2n1CC(=O)Nc1cc(C)cc(C)c1 | inactive: 1.49% | –
C/C(N)=C(/C#N)C(=O)CSc1nnc(Nc2c(C)cccc2C)s1 | – | inconclusive: 25.1 µM [inhibitor, full curve]
O=C(Nc1cccc(C(F)(F)F)c1)/C(=C/c1ccco1)NC(=O)c1cccs1 | inactive: 13.6% | –
CC(C)CC(C(=O)N1CCOCC1)N1Cc2ccccc2C1=O (stereo unspecified) | – | inconclusive: 89.1 µM [inhibitor, single point]
CCS(=O)(=O)N1Cc2ccccc2CC1C(=O)Nc1nnc(SCc2ccc(F)cc2)s1 (stereo unspecified) | – | inconclusive: 15.8 µM [inhibitor, full curve]
CCOc1ccc(NC(=O)CC2C(=O)N(c3cccc(C)c3)C(=O)N2Cc2cccs2)cc1 (stereo unspecified) | inactive: -0.0487% | –
COc1cccc(CCNC(=O)c2c(O)nc3c(C)cccn3c2=O)c1 | inactive: 23.4% | –
CC(Sc1nnc2ccc3ccccc3n12)C(=O)Nc1ccc(Cl)cc1 (stereo unspecified) | inactive: -0.62% | –
COc1ccc(NC(=O)/C(C#N)=C\c2ccc(-c3cccc(C(=O)O)c3C)o2)cc1 | – | active: 7.94 µM
Cc1ccc(-n2c3c(cc(C(=O)Nc4ccccc4C(N)=O)c2=O)C(=O)CC(C)(C)C3)cc1 | inactive: 3.22% | –
Cc1c(Cl)cnc(NC(=O)COC(=O)c2ccc(S(=O)(=O)NCc3ccco3)cc2)c1Cl | – | active: 31.6 µM
O=C(O)C(c1ccccc1)N1C(=O)/C(=C\c2ccc(-c3ccccc3Cl)o2)SC1=S (stereo unspecified) | inconclusive: -169% [inhibitor] | –
COc1ccc(OCC(=O)c2c(O)c3ccccc3oc2=O)cc1 | – | inconclusive: 89.1 µM [inhibitor, single point]
CCOc1ccccc1/C=c1\sc2nc(-c3ccco3)nn2c1=O | – | active: 11.2 µM
CCCCN1C(=O)/C(=C/C=C2\SCCN2C)SC1=S | – | inconclusive: 79.4 µM [inhibitor, single point]
COc1ccc(NC(=O)CCS(=O)(=O)c2ccc3c(c2)oc(=O)n3C)cc1 | – | inconclusive: 44.7 µM [inhibitor, partial curve]

An excerpt from above in order of molar mass, largest number first.
Compound | activity change, negative = inhibition | Potency
Cc1ccc(-n2c3c(cc(C(=O)Nc4ccccc4C(N)=O)c2=O)C(=O)CC(C)(C)C3)cc1 | inactive: 3.22% | –
COc1ccc(-n2nnnc2SCC(=O)Nc2cccc(NC(C)=O)c2)cc1OC | – | inconclusive: 1.41 µM [inhibitor, full curve, poor fit]
O=C(Nc1ccc(-c2nc3cc(Cl)ccc3o2)cc1)c1cc2ccccc2o1 | inconclusive: -59.7% [inhibitor] | –
Cc1c(CC(=O)O)c(=O)oc2c(C)c3occ(-c4ccc(F)cc4)c3cc12 | – | active: 50.1 µM

A section taken from the entries so far:
Compound | activity change, negative = inhibition | Potency
CCOc1ccc2nc(N3CCOCC3)nc(C)c2c1 | – | inconclusive: 89.1 µM [inhibitor, single point]
CC(NC(=O)OC(C)(C)C)C(=O)Oc1cc2oc(=O)cc(-c3ccccc3)c2cc1Cl (stereo unspecified) | inactive: -21% | –

The list goes on:

Compound | activity change, negative = inhibition | Potency
Cc1cc(SCc2ccc([N+](=O)[O-])cc2)nc(=O)[nH]1 | – | inconclusive: 89.1 µM [inhibitor, single point]
Cc1ccccc1Cn1cc(S(=O)(=O)CC(=O)Nc2nccs2)c2ccccc21 | – | inconclusive: 63.1 µM [inhibitor, single point]
COc1cc(C)ccc1OCCON1C(=O)CCC1=O | – | inconclusive: 8.91 µM [inhibitor, full curve, poor fit]
Cc1cccc(C(=O)Nc2cccc(NC(=O)c3ccccc3)c2)c1 | – | inconclusive: 5.01 µM [inhibitor, full curve]
CCOc1ccc(N2CC(C(=O)Nc3c(C)n(C)n(-c4ccccc4)c3=O)CC2=O)cc1 (stereo unspecified) | inactive: 0.766% | –
Cc1c(Cl)cccc1NC(=S)N1CCC(N(C)CC2CCCO2)CC1 (stereo unspecified) | inactive: 11.2% | –
O=C(CN1CCN(C(c2ccccc2)c2ccccc2)CC1)Nc1ccc(N2CCOCC2)cc1 | – | inconclusive: 11.2 µM [inhibitor, single point]
Cc1nc(Nc2cnc(/C=C/c3cc(C(=O)Nc4cccc(C(F)(F)F)c4)ccc3C)cn2)cc(N2CCNCC2)n1 | – | active: 39.8 µM
CCCCOc1c(C(=O)Nc2ccccc2)nnn1-c1ccccc1 | – | inconclusive: 89.1 µM [inhibitor, single point]
COc1ccc(NC(=O)CSc2nc(O)cc(=O)n2-c2ccccc2)cc1 | – | inconclusive: 39.8 µM [inhibitor, single point]
Cc1ccc(NC(=O)C(Cc2ccccc2)NS(=O)(=O)c2ccc3c(c2)c(=O)n(C)c(=O)n3C)c(C)c1 (stereo unspecified) | inactive: 33.8% | –
O=C(O)Cc1sc(Nc2ccccc2)nc1-c1ccc(Cl)cc1 | – | inconclusive: 50.1 µM [inhibitor, partial curve]
COc1ccc(C)cc1NC(=O)NNC(=O)c1cc2ccccc2cc1O | – | active: 79.4 µM
O=C(CN1C(=O)S/C(=C\C=C\c2ccccc2)C1=O)N1CCOCC1 | inactive: 2.18% | –
CN(C)c1ccc(/C=C(\NC(=O)c2ccccc2)C(=O)N/N=C/c2ccc(C(=O)O)cc2)cc1 | – | inconclusive: 89.1 µM [inhibitor, single point]
Cc1nc(SCC(=O)O)n[nH]1 | – | inconclusive: 89.1 µM [inhibitor, single point]
CCc1cc2c(=O)c(-c3nc4ccccc4n3C)coc2c(CN2CCN(C)CC2)c1O | inactive: 28.4% | –
Cc1cccc(C(=O)Oc2coc(CSc3nnc(NC(=O)C4CC4)s3)cc2=O)c1 | – | inconclusive: 28.2 µM [inhibitor, full curve]
Cc1ccc(S(=O)(=O)Nc2cccc(-c3ccc(N4CCC(C)CC4)nn3)c2)s1 | inactive: 2.11% | –
C=CCn1c(=O)c2c(nc3n2CCCN3CCc2ccc(OC)c(OC)c2)n(C)c1=O | – | inconclusive: 1 µM [inhibitor, full curve, poor fit]
CCc1nnc2sc(-c3ccc(NC(=O)c4ccco4)cc3)nn12 | – | inconclusive: 0.316 µM [inhibitor, full curve, poor fit]
CC1(C)Cc2c(sc3c2c(=N)n(Cc2ccco2)c(=O)n3Cc2ccccc2)CO1 | – | inconclusive: 89.1 µM [inhibitor, single point]
COc1cc(/C=N/n2c(=S)[nH]nc(C)c2=O)cc([N+](=O)[O-])c1O | inactive: -11.5% | –
